In publication PMC10802717 one finds binding data, which are given here for one substance.

Sequences of proteins named here, by UniProt entry; tags and fusion partners are left off. A change or cut given only in a name is not applied to a line headed by its entry.
UniProt Q00987: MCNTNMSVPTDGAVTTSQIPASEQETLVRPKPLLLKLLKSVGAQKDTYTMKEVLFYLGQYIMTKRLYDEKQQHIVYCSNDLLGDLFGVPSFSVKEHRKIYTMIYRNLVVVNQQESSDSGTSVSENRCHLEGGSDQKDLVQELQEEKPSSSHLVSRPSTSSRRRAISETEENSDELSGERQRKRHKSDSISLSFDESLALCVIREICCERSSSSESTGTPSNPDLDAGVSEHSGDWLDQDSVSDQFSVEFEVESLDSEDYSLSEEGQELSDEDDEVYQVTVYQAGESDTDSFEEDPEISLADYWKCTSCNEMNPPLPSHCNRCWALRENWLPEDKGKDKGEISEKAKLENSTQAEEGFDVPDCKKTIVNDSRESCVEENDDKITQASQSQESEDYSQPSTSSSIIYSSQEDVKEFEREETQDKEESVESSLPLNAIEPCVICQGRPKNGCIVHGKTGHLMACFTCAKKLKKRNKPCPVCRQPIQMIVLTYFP

The test concerns the target T1, endogenous TRIM26 (human (endogenous in HCT116)) (UniProt Q12899).
T1 sequence: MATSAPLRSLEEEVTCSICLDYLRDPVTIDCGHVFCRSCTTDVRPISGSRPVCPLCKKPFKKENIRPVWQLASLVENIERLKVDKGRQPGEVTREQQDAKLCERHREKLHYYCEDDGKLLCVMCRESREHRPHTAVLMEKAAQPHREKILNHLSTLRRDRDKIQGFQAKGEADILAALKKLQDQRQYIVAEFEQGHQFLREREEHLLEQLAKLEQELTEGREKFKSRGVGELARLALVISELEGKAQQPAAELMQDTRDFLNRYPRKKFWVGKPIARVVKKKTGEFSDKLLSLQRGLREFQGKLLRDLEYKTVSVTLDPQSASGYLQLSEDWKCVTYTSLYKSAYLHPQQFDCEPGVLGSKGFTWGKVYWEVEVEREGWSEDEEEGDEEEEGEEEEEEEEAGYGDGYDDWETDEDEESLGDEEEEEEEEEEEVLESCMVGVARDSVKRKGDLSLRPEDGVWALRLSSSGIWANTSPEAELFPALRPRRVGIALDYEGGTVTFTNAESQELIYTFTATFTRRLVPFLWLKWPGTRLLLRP
Put plainly: co-IP; HCT116 p53+/+ lysate, anti-TRIM26 antibody against non-specific IgG, then Western blot; 4°C; lysis buffer 50 mM Tris/HCl pH 7.5, 0.5% NP-40, 1 mM EDTA, 150 mM NaCl, 1 mM DTT.

These are yes or no findings as the source states them, for the method shown. In cells and extracts the contact can be indirect. Binding calls can cover weak binding; strength is not graded here.

On to “endogenous MDM2 (from UniProt Q00987) (enzyme)”, for which the binding result is “binds”.
